The text below walks through data of article PMC5996148.

“And” between values parts separate entries of the source, which are not always exact repeats. Equal values may be shown once. This is one part of the list.

Holding throughout (test): protein microarray (ProtoArray v5.0), streptavidin-Alexa Fluor 647
Conditions in all cases: 3'-biotin; 20 mM Tris (pH 7.5), 5 mM MgCl2, 100 mM KCl, 0.1% Tween-20, A/T-rich and random oligonucleotide blockers; temperature not stated; high values mean tight binding

Test [1] has as its system SUSD4 (human).
For test [2], the system named is SWI/SNF-related matrix-associated actin-dependent regulator of chromatin subfamily D member 2 (human).
Test [3] deals with SYCE1 (human).
Test [4] concerns SYMPK (human).
Test [5] deals with SYNGR2 (human).
Test [6] deals with SYNGR4 (human).
Test [7] has as its system SYNJ2BP (human).
The subject of test [8] is SYS1 (human).
In test [9] the test system is SYVN1 (human).
Test [10] concerns Scavenger receptor cysteine-rich domain-containing protein LOC284297 (human).
Test [11] deals with Secretagogin (human).
In test [12] the test system is Selenium-binding protein 1 (human).
Test [13] relates to Selenoprotein P (human).
Test [14] deals with Septin-12 (human).
In test [15] the test system is Septin-2 (human).
The test system of test [16] is Sequestosome-1 (human).
Test [17] has as its system Serine protease inhibitor Kazal-type 2 (human).
Test [18] relates to Serine-protein kinase ATM (human).
Test [19] relates to Serine/threonine-protein kinase 16 (human).
Test [20] concerns Serine/threonine-protein kinase 40 (human).

Turning to “GGGAGGCTGAGGCAGG [G4-1 biotinylated (PQS2)]”, the binding signal was -0.347 z-score in [1]; -0.352 z-score in test [2]; -0.35 z-score and -0.335 z-score in test [3]; -0.346 z-score in [4]; -0.34 z-score in test [5]; -0.343 z-score in [6]. In addition, the binding signal is -0.324 z-score in test [7]; -0.291 z-score in [8]; -0.323 z-score in test [9]; -0.362 z-score in [10]; -0.363 z-score in [11]; -0.344 z-score in test [12]. Also, the binding signal in test [13] was -0.348 z-score; in test [14], -0.307 z-score; in test [15], -0.356 z-score; in test [16], -0.315 z-score; in test [17], -0.324 z-score; in test [18], -0.334 z-score. Besides, the binding signal is -0.294 z-score in [19] and -0.292 z-score in test [20].
